The target in the assay is T1, IRGM1 (UniProt Q60766).
T1 sequence: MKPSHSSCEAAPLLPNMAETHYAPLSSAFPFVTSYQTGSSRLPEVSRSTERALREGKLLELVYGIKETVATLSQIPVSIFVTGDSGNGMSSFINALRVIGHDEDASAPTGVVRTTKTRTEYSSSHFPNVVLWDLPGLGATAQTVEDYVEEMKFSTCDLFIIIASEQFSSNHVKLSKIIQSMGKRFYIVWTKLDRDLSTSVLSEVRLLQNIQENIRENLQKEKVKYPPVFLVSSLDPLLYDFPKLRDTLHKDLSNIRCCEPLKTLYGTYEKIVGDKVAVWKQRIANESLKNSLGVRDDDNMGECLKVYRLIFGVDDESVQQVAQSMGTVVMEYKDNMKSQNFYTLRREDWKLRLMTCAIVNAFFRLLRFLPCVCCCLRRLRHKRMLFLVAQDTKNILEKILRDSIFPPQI
The assay is described as follows: co-IP; total B16 cell lysates incubated with anti-IRGM1 polyclonal antibody (AbMart) at 4 °C overnight, captured on Protein A/G agarose beads; PIK3CA detected by blot; non-immune IgG as control.

Protein sequences, listed by entry. Tags and fused reporters are not part of them.
UniProt P42337: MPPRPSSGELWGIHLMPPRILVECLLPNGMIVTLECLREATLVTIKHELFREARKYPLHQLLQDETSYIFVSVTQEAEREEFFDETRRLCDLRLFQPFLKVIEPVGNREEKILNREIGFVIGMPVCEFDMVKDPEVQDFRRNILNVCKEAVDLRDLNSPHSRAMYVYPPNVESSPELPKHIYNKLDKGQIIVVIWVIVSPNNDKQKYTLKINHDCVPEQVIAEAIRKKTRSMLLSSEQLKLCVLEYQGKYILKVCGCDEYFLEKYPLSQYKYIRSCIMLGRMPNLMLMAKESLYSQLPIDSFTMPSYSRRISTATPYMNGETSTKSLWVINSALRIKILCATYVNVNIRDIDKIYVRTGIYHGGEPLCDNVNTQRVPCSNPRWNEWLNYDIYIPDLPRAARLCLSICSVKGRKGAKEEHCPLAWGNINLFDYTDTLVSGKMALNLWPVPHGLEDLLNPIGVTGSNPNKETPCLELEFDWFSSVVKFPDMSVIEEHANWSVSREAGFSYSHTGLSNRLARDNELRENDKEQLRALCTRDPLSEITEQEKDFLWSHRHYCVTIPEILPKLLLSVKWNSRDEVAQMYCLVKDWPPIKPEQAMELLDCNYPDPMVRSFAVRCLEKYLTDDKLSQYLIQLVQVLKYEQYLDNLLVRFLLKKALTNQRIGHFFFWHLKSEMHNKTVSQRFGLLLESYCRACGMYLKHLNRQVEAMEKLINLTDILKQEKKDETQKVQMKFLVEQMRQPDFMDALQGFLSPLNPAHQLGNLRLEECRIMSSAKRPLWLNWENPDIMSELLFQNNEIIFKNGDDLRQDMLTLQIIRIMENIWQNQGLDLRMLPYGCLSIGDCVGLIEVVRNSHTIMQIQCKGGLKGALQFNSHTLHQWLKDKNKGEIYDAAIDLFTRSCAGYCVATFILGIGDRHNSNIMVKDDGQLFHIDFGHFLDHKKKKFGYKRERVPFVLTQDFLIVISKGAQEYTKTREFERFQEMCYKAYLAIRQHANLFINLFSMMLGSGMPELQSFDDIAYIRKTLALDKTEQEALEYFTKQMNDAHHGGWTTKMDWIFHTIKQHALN

These are yes or no findings as the source states them, for the method shown. Binding seen in cells or lysates may run through a third protein. Some results given as binding are weak or reduced against the parent protein; the word gives no strength.

PIK3CA (from UniProt P42337 1-1068): the binding result is on record as “binds”.

(Values after paper PMC4512008.)
